# Publication PMC12040169 (PLOS Biology, 2025)
# The list shows a part of the results.
# Test system: T1, CTL2-GFP (C. trachomatis L2/434/Bu, GFP-expressing)
# T1 construct: L2/434/Bu, GFP-expressing
# Design: species or system HeLa; Intracellular C. trachomatis growth in HeLa cells, bulk GFP fluorescence relative to DMSO
# Conditions: bulk GFP, single well; 28.5 h, 10 µM; inhibitor
row,SMILES,% of control remaining
1,O=C(CCS(=O)(=O)c1ccc(Br)cc1)OCC(=O)c1ccccc1 [CBK021886],100.659%
2,Cc1cc(OC(C)C(=O)NCc2ccccn2)ccc1Cl (stereo not drawn) [CBK269617],118.1%
3,C=CCn1c2cc(C)sc2c2cnn(CCC(C)=O)c(=O)c21 [CBK282868],101.431%
4,O=C(O)C(Cc1ccccc1)N1C(=O)/C(=C/c2ccc([N+](=O)[O-])cc2)SC1=S (stereo not drawn) [CBK263108],100%
5,CCc1nc2ccc(C(=O)NC3=NN(c4ccccc4)C(=O)C3)cn2c1N(C)Cc1cccs1 [CBK145557],104.484%
6,Cc1ccc2c(c1)-c1c(ssc1=S)C(C)(C)N2C(=O)COc1nc2ccccc2s1 [CBK262682],106.354%
7,Cc1n[nH]c(NNC(=O)COc2ccc(Cl)cc2)c1[N+](=O)[O-] [CBK261478],109.799%
8,O=C(Nc1ccc(S(=O)(=O)Nc2ncccn2)cc1)c1ccc(Cl)c([N+](=O)[O-])c1 [CBK263739],109.759%
9,CC(=O)Nc1ccc(-c2nc3ncccc3o2)cc1C [CBK288132],118.125%
10,CC(C)NC(=O)[C@H]1CN(C(=O)c2cc[nH]n2)C[C@@H]1c1ccnc(N2CCCC2)n1 [CBK285526],121.75%
11,COc1ccc(S(=O)(=O)N(C)CC(=O)Nc2ccccc2C(F)(F)F)cc1OC [CBK266159],116.834%
12,COc1ccccc1NC(=O)c1[nH]nc(O)c1Cc1c(Cl)cccc1Cl [CBK107846],112.783%
13,O=C(NCc1cccc(C(F)(F)F)c1)N1CCN(c2cc(C(F)(F)F)ccn2)CC1 [CBK156435],150.967%
14,O=C(NCc1cccnc1)C1CCC(Cn2c(=S)[nH]c3ccccc3c2=O)CC1 (stereo not drawn) [CBK266678],118.496%
15,O=C(CSc1nnc(Cc2ccccc2)o1)Nc1c(Cl)cc(Cl)cc1Cl [CBK266119],134.003%
16,CC1=CCC(C(=O)O)C(C(=O)Nc2ccccc2NC(=O)c2ccc(C(F)(F)F)cc2)C1 (stereo not drawn) [CBK265794],107.072%
17,COCCOc1ccc(-c2noc([C@@H]3CCCN3)n2)cn1 [CBK288883],140.915%
18,Cc1ncccc1OC1(C(=O)NCc2cn3c(n2)SCC3)CCNCC1 [CBK307649],133.484%
19,COc1ccc(-c2csc(N3CCN(C)CC3)n2)cc1F [CBK305910],95.8404%
20,CSc1nc(Cl)c(-c2ccccc2)c(N(C)C)n1 [CBK023169],108.135%
21,O=CN1CCc2c([nH]c3ccccc23)C12CCN(CCCN1C(=O)C3CCCCC3C1=O)C2 (stereo not drawn) [CBK039592],89.569%
22,CN(Cc1ccc2ncccc2c1)C(=O)C1CN(S(=O)(=O)c2ccc(F)cc2)C1 [CBK285943],121.271%
23,CC(=O)c1cc(C(=O)Nc2cnn(Cc3ccc(F)cc3)c2)cs1 [CBK282528],106.264%
24,O=C1CCC(=O)N1CCn1c(=O)n(S(=O)(=O)c2ccc(-c3ccccc3)cc2)c2ccccc21 [CBK106494],115.668%
25,Cc1cc(C(=O)NC2CCCOC2)c2cccc(Cl)c2n1 (stereo not drawn) [CBK282459],122.32%
26,COc1ccc(C(CC(=O)c2ccc(C)cc2)Nc2ccc([N+](=O)[O-])cc2)cc1 (stereo not drawn) [CBK268187],107.183%

row,SMILES,% of control remaining
1,CCOc1ccc(S(=O)(=O)N(C)CC(=O)N2CCN(C)CC2)cc1 [CBK269953],120.619%
2,CNS(=O)(=O)c1ccc(NC(=O)c2cc(-c3cccnc3)nc3ccc(Br)cc23)cc1 [CBK267776],139.026%
3,CC(=O)Nc1ccc(C(=O)N/C(=C/c2ccccc2)C(=O)O)cc1 [CBK265353],123.78%
4,CCNC(=O)Nc1ncc(-c2ccc(OC(F)(F)F)cc2)c2cccnc12 [CBK070690],110.114%
5,O=C(O)C1CCC1C(=O)N1CCN(c2ccc(C(F)(F)F)cn2)CC1 (stereo not drawn) [CBK057147],165.651%
6,Cc1cc(NS(=O)(=O)c2ccc(NC(=S)NC(=O)C(C)(C)C)cc2)no1 [CBK268877],34.8432%
7,O=S(=O)(c1ccc(F)cc1)N1CCN(c2ncnc3scc(-c4ccccc4)c23)CC1 [CBK264864],100%
8,CCNc1cccnc1N(CC)C1CCN(C(=O)c2cc3cc4c(cc3[nH]2)OCO4)CC1 [CBK016815],118.169%
9,Cc1c(N)c(=O)n2nc(C(F)(F)F)nc2n1C [CBK020172],128.36%
10,Cc1cc(-c2ccccc2)nn1C(CC(=O)O)C(=O)O (stereo not drawn) [CBK263480],98.4921%
11,O=C(O)CC1(CC(=O)N2CCN(C(c3ccccc3)c3ccccc3)CC2)CCCC1 [CBK086174],121.702%
12,CN(C)CCN(Cc1ccncc1)Cc1ccc(F)cc1F [CBK283094],108.151%
13,Cc1nc(-c2ccc(Cl)cc2)sc1C(=O)N1CCCC(C(=O)O)C1 (stereo not drawn) [CBK304407],135.604%
14,CCOC(=O)c1cccc(NS(=O)(=O)c2ccc(Br)cc2)c1 [CBK034346],93.1885%
15,O=C(Nc1ccccc1N1CCNCC1)c1ccoc1 [CBK029442T],156.646%
16,COc1ccc(C(NC(=O)N2CCN(C(=O)OCc3ccccc3)CC2)c2ccccc2C)cn1 (stereo not drawn) [CBK081469],114.413%
17,CNC(=O)C1(Cc2ccc(-c3ccccc3)cc2)CCN(C(=O)c2ccccc2OC)CC1 [CBK285767],139.894%
18,Cc1cc(N2C(=O)c3ccc(C(=O)O)cc3C2=O)ccc1NC(=O)c1cccs1 [CBK265415],100%
19,Cc1cc(NC(=O)CC2CCCCC2)nc2c1c(=O)oc1ccccc12 [CBK291151],124.631%
20,Cc1sc2nc(SCc3cc(O)[nH]n3)nc(N)c2c1C [CBK264585],121.84%
21,N=c1n(CC(=O)O)c2ccccc2n1Cc1ccc(Cl)cc1 [CBK262897B],133.09%
22,Cc1cnc(C)c(N2CCN(C(=O)NCCSc3nncn3C)CC2)n1 [CBK306531],86.6944%
23,O=C(Nc1cc([N+](=O)[O-])ccc1O)c1ccc2c(c1)C(=O)N(Cc1cccnc1)C2=O [CBK266770],90.8784%
24,CN(C)CCn1c(=O)oc2ccc(NC(=O)C3CCCO3)cc21 (stereo not drawn) [CBK304913],101.763%
25,CC(=O)N1CCC(c2c(C(=O)Nc3cccc(CN4CCCC4)c3)sc3ccccc23)C1 (stereo not drawn) [CBK285892],93.5801%
26,Fc1cccc(-c2nccnc2NCCc2c[nH]c3ccccc23)c1 [CBK036861],164.703%

# Quoted at random: 3 entries already listed
row,SMILES,% of control remaining
10,Cc1cc(-c2ccccc2)nn1C(CC(=O)O)C(=O)O (stereo not drawn) [CBK263480],98.4921%
8,CCNc1cccnc1N(CC)C1CCN(C(=O)c2cc3cc4c(cc3[nH]2)OCO4)CC1 [CBK016815],118.169%
16,CC1=CCC(C(=O)O)C(C(=O)Nc2ccccc2NC(=O)c2ccc(C(F)(F)F)cc2)C1 (stereo not drawn) [CBK265794],107.072%

# Carrying on:

row,SMILES,% of control remaining
1,O=C(O)CC1S\C(=N/N=C\C=C/c2ccccc2)N(c2ccc(O)cc2)C1=O (stereo not drawn) [CBK263688],125.469%
2,O=C(c1sc2ccccc2c1C1CCN(Cc2ccccc2F)C1)N1CCOCC1 (stereo not drawn) [CBK286260],151.937%
3,O=C(C1CCC1)N1CCC(c2nnc3n2CCCCC3)CC1 [CBK284625],150.717%
4,N#CCCN(C(=O)NCc1ccc(F)cc1)C1CCCCC1 [CBK156372],119.85%
5,O=C(NC1CC(=O)N(CCc2ccc(F)cc2)C1)c1cn2ccsc2n1 (stereo not drawn) [CBK307263],118.719%
6,OCCN1CCN(CC(O)COCC2COc3ccccc3O2)CC1 (stereo not drawn) [CBK027374C],107.375%
7,CN1CCN(NC(=O)c2cc(-c3ccc(Cl)cc3)[nH]n2)CC1 [CBK116553],107.473%
8,CC(C)(O)C1CCCN(C(=O)c2coc(COc3cccc(F)c3)n2)C1 (stereo not drawn) [CBK306977],174.667%
9,CC(C)Oc1ccc(CCNC(=N)NC(=N)N)cc1Cl [CBK263966],62.0552%
10,O=C(Nc1nc2c(s1)CCCC2)c1ccccc1 [CBK287326],135.39%
11,N=C1NC(=O)/C(=C/c2c(OS(=O)(=O)c3ccc(Cl)cc3)ccc3ccccc23)S1 [CBK265311],100%
12,NC(=O)CN1CC2(CCNCC2)c2ccccc21 [CBK116314],88.4333%
13,Cn1c(SCCC(=O)O)nnc1-c1cccnc1 [CBK269077],101.721%
14,Cn1ncc2c1CCCN(C(=O)COc1ccccc1F)C2 [CBK285324],162.977%
15,COc1ccc(OC)c(NC(=O)CSc2nnc(-c3ccncc3)s2)c1 [CBK269209],142.2%
16,CSc1nc(-c2ccccc2)nc(N)c1C(C)=O [CBK270762],155.765%
17,Oc1[nH]nc2c1CCC2 [CBK260873],102.622%
18,CC(=O)Nc1ccc(CCC2(NC(=O)C3CC3)CCCCC2)cn1 [CBK282290],105.489%
19,CC1CCCN(C(=O)CCn2c(C(F)F)cc3cccnc32)C1 (stereo not drawn) [CBK285025],155.741%
20,CCC(C)N(C)CCNC(=O)Nc1ccc(F)c(-n2nnnc2C)c1 (stereo not drawn) [CBK305176],111.308%
21,C(=N/OCc1ccccc1)/c1c[nH]c2ccccc12 [CBK168629],109.875%
22,C[C@H](Nc1cncc(-c2ccccc2CO)n1)c1ccccc1 [CBK065520],114.306%
23,COc1ccc(C(=O)N2CCC(C)CC2)cc1[N+](=O)[O-] [CBK074341],103.434%
24,NC(=O)Cn1cc(CN2CCC(c3ccccc3)C2)c2ccccc21 (stereo not drawn) [CBK282803],129.71%
25,FC(F)(F)c1ccnc(Sc2cccs2)n1 [CBK115245],130.308%
26,O=C(CO/N=C\c1cccc([N+](=O)[O-])c1)Nc1ccccc1C(=O)O [CBK262051],116.916%
